Paper PMC7677261
Results are given in words; binding and its absence hold for the method and conditions named. Some results given as binding are weak or reduced against the parent protein; the word gives no strength.

Protein sequences, listed by entry. Tags and fused reporters are not part of them. Lines headed by an entry give the natural chain unless they say otherwise; changes in a name come on top. Residues count along the entry.
UniProt P51885, residues 19-338: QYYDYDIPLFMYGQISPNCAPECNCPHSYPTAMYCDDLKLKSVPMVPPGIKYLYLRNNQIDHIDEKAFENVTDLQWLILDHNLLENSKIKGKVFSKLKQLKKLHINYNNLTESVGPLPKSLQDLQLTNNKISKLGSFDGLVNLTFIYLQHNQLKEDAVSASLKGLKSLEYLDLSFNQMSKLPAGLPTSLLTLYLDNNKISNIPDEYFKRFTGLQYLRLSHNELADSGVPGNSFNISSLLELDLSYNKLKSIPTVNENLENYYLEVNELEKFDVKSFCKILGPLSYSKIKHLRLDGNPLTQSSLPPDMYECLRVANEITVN
UniProt Q62469: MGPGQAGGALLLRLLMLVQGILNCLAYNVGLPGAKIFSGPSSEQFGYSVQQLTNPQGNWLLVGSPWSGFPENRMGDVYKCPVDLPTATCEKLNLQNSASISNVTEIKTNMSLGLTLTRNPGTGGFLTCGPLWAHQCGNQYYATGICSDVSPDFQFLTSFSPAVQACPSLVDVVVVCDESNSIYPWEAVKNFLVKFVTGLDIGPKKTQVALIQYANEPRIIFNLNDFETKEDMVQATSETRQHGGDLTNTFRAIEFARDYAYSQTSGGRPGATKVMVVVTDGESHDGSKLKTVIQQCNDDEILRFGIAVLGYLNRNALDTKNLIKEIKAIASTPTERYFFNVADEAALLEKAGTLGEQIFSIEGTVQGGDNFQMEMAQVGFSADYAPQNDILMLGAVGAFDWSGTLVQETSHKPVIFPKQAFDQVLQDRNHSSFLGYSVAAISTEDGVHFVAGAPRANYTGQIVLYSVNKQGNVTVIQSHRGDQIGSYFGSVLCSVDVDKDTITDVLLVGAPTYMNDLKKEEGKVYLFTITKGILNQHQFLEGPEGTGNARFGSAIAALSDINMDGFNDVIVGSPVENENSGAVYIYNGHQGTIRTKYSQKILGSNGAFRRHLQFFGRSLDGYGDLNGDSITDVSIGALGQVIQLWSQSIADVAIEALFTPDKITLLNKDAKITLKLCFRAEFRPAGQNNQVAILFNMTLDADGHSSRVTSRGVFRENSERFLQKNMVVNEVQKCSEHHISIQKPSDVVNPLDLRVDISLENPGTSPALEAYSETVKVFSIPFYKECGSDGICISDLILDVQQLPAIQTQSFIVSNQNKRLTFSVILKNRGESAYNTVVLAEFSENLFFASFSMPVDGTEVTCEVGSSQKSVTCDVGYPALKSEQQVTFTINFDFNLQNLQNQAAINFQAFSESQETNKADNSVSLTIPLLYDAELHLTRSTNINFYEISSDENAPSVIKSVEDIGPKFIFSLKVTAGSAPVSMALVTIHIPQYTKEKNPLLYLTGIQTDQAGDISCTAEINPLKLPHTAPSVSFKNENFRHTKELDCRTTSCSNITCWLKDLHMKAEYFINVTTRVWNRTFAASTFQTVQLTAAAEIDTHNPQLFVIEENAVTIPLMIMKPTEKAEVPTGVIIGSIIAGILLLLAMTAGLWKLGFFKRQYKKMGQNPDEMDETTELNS

Biological target: lumican (UniProt P51885)
Experiment: ELISA; lumican coated on Maxisorp 96-well plates (18 h, 4°C), blocked with 1% BSA in PBST; increasing amounts of MC3T3-E1 cell lysate added for 2 h; bound integrin α2 or β1 detected with antibodies and HRP-linked antibody, read at 450 nm; BSA-coated wells as control; only the target purified

For “integrin α2β1 (from UniProt Q62469 27-1178; P09055-1 21-798) (receptor)”, the binding was “binds”.
